Test results published in the supplement of paper PMC4604168 (melanoma cell lines).
This is one part of the list. Many values rest on one well or one pass, so single values are uncertain.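 Cells were imaged in 1,536-well plates, and nuclei stained with an antibody against cleaved PARP were counted against all DNA-stained nuclei to give the apoptosis fraction. Screening doses were chosen to leave most cells alive, and resting and induced cleaved-PARP levels differ strongly between cell lines.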

Legend:
Assay in all cases: cleaved PARP positive nuclei fraction relative to DMSO control; melanoma cells; higher = more apoptosis
Details in all cases: library dose: low library concentration; 72 h
[1] = tested on: 501Mel
[2] = tested on: A101D
[3] = tested on: A2058
[4] = tested on: A375
[5] = tested on: C32
[6] = tested on: CBRC008 (line from a melanoma biopsy)
[7] = tested on: CBRC013 (line from a melanoma biopsy)
[8] = tested on: CBRC014 (line from a melanoma biopsy)
[9] = tested on: CBRC016 (line from a melanoma biopsy)
[10] = tested on: CBRC017 (line from a melanoma biopsy)
[11] = tested on: COLO792
[12] = tested on: COLO800
[13] = tested on: COLO829
[14] = tested on: G361
[15] = tested on: IPC-298
[16] = tested on: IST-MEL1
[17] = tested on: LB2518-MEL
[18] = tested on: LOXIMVI
[19] = tested on: MEL-HO

SMILES | cleaved PARP positive nuclei fraction [1] | cleaved PARP positive nuclei fraction [2] | cleaved PARP positive nuclei fraction [3] | cleaved PARP positive nuclei fraction [4] | cleaved PARP positive nuclei fraction [5] | cleaved PARP positive nuclei fraction [6] | cleaved PARP positive nuclei fraction [7] | cleaved PARP positive nuclei fraction [8] | cleaved PARP positive nuclei fraction [9] | cleaved PARP positive nuclei fraction [10] | cleaved PARP positive nuclei fraction [11] | cleaved PARP positive nuclei fraction [12] | cleaved PARP positive nuclei fraction [13] | cleaved PARP positive nuclei fraction [14] | cleaved PARP positive nuclei fraction [15] | cleaved PARP positive nuclei fraction [16] | cleaved PARP positive nuclei fraction [17] | cleaved PARP positive nuclei fraction [18] | cleaved PARP positive nuclei fraction [19]
CC1(C)NC(=O)N(c2ccc([N+](=O)[O-])c(C(F)(F)F)c2)C1=O [nilutamide] + C[C@@H]1CCN(C(=O)CC#N)C[C@@H]1N(C)c1ncnc2[nH]ccc12 [CP690550] (first compound 1 µM, partner dose 1 µM) | 88.4% | 126% | 62.9% | 110% | 89.6% | 55.4% | 140% | 162% | 253% | 94% | 82.3% | 71.2% | 74.9% | 176% | 44.4% | 625% | 40.9% | 29.8% | 34.8%
Cc1nc(Nc2ncc(C(=O)Nc3c(C)cccc3Cl)s2)cc(N2CCN(CCO)CC2)n1 [dasatanib] + C[C@@H]1CCN(C(=O)CC#N)C[C@@H]1N(C)c1ncnc2[nH]ccc12 [CP690550] (first compound 0.004 µM, partner dose 1 µM) | 89.6% | 134% | 206% | 169% | 141% | 76.9% | 77.4% | 107% | 178% | 94.6% | 179% | 148% | 139% | 65.4% | 85.8% | 215% | 101% | 236% | 136%
Cn1cncc1[C@@](N)(c1ccc(Cl)cc1)c1ccc2c(c1)c(-c1cccc(Cl)c1)cc(=O)n2C [tipifarnib] + NCC(=O)Nc1ccc(-n2nc(C(F)(F)F)cc2-c2ccc3c(ccc4ccccc43)c2)cc1 [OSU03012] (first compound 0.01 µM, partner dose 1 µM) | 340% | 44.2% | 94.5% | 2900% | 59.2% | 131% | 137% | 115% | 115% | 111% | 132% | 80.2% | 80.6% | 3950% | 156% | 168% | 105% | 95.8% | 70.7%
Cc1ccc(NC(=O)c2cccc(N(C)C)c2)cc1NC(=O)c1ccc(O)cc1 + NCC(=O)Nc1ccc(-n2nc(C(F)(F)F)cc2-c2ccc3c(ccc4ccccc43)c2)cc1 [OSU03012] (first compound 2 µM, partner dose 1 µM) | 192% | 114% | 184% | 5530% | 69.6% | 170% | 225% | 113% | 84.5% | 101% | 113% | 266% | 149% | 98.5% | 139% | 70.3% | 151% | 22% | 18.6%
Nc1cccc2c1CN(C1CCC(=O)NC1=O)C2=O (stereo not drawn) [lenalidomide] + CN(NC(=O)CC(=O)NN(C)C(=S)c1ccccc1)C(=S)c1ccccc1 [STA4783] (first compound 1 µM, partner dose 0.006 µM) | 341% | 105% | 96.7% | 2210% | 139% | 907% | 118% | 636% | 156% | 154% | 219% | 77.4% | 191% | 177% | 181% | 209% | 138% | 199% | 70.9%
Nc1cccc2c1CN(C1CCC(=O)NC1=O)C2=O (stereo not drawn) [lenalidomide] + COc1cc(Nc2ncc(F)c(Nc3ccc4c(n3)NC(=O)C(C)(C)O4)n2)cc(OC)c1OC [Tamatinib] (first compound 1 µM, partner dose 0.4 µM) | 84.2% | 150% | 97.7% | 96.8% | 41.5% | 366% | 91.9% | 97.8% | 64.1% | 86.2% | 285% | 129% | 163% | 180% | 124% | 55.1% | 111% | 95.3% | 109%
COc1cc(Nc2ncc(F)c(Nc3ccc4c(n3)NC(=O)C(C)(C)O4)n2)cc(OC)c1OC [Tamatinib] + NC(=O)Nc1cc(-c2cccc(F)c2)sc1C(=O)N[C@H]1CCCNC1 [AZD7762] (first compound 0.4 µM, partner dose 0.02 µM) | 184% | 114% | 112% | 609% | 153% | 449% | 92.6% | 96.2% | 99.9% | 110% | 121% | 44.4% | 113% | 99.8% | 99.7% | 48.2% | 48.6% | 119% | 95.2%
OCc1c[nH]c2ccccc12 [Indole-3-carbinol] + OCCn1cc(-c2cnc3nnn(Cc4ccc5ncccc5c4)c3n2)cn1 [PF04217903] (first compound 0.8 µM, partner dose 1 µM) | 73.5% | 250% | 134% | 135% | 59.8% | 131% | 104% | 174% | 110% | 108% | 302% | 32.8% | 86.8% | 52.4% | 41.7% | 143% | 57.1% | 101% | 145%
CC(C)(C)c1cnc(CSc2cnc(NC(=O)C3CCNCC3)s2)o1 + NC(=O)Nc1cc(-c2cccc(F)c2)sc1C(=O)N[C@H]1CCCNC1 [AZD7762] (first compound 0.01 µM, partner dose 0.02 µM) | 77.2% | 89.7% | 97.5% | 525% | 53.2% | 229% | 147% | 107% | 178% | 99.7% | 136% | 53.5% | 78.6% | 40.7% | 91.5% | 101% | 196% | 50.6% | 84.6%
Cn1nnc2c(C(N)=O)ncn2c1=O [temozolomide] + CC1(C)NC(=O)N(c2ccc([N+](=O)[O-])c(C(F)(F)F)c2)C1=O [nilutamide] (first compound 2 µM, partner dose 1 µM) | 102% | 92.2% | 169% | 54.2% | 170% | 123% | 124% | 99.6% | 91.3% | 128% | 104% | 63.6% | 87.1% | 156% | 131% | 131% | 91.5% | 97.5% | 139%
C=CCn1c(=O)c2cnc(Nc3ccc(N4CCN(C)CC4)cc3)nc2n1-c1cccc(C(C)(C)O)n1 + Cc1ccc(NC(=O)c2cccc(N(C)C)c2)cc1NC(=O)c1ccc(O)cc1 [ZM336372] (first compound 0.02 µM, partner dose 2 µM) | 268% | 101% | 20.4% | 314% | 89.2% | 171% | 120% | 148% | 99.5% | 73.2% | 87.4% | 39.6% | 152% | 80.5% | 217% | 47.7% | 53.2% | 41% | 161%
OCc1c[nH]c2ccccc12 [Indole-3-carbinol] + Cc1cc(N2CCOCC2)cc2[nH]c(-c3c(NC[C@@H](O)c4cccc(Cl)c4)cc[nH]c3=O)nc12 [BMS536924] (first compound 0.8 µM, partner dose 0.2 µM) | 266% | 66.5% | 74.6% | 110% | 79.7% | 281% | 147% | 86.1% | 68.2% | 73.5% | 87% | 105% | 85.4% | 127% | 145% | 66.1% | 40% | 141% | 71.2%
C[C@]1(c2nc3c(C(N)=O)cccc3[nH]2)CCCN1 [Veliparib] + C=CCn1c(=O)c2cnc(Nc3ccc(N4CCN(C)CC4)cc3)nc2n1-c1cccc(C(C)(C)O)n1 [MK1775] (first compound 1.4 µM, partner dose 0.02 µM) | 263% | 122% | 109% | 349% | 74.2% | 100% | 107% | 90.6% | 45.9% | 90.1% | 48.7% | 20.6% | 80.9% | 89.2% | 47.1% | 34.3% | 29.2% | 382% | 131%
Cn1c(Nc2ccc(C(F)(F)F)cc2)nc2cc(Oc3ccnc(-c4ncc(C(F)(F)F)[nH]4)c3)ccc21 + C[C@@H]1CCN(C(=O)CC#N)C[C@@H]1N(C)c1ncnc2[nH]ccc12 [CP690550] (first compound 0.08 µM, partner dose 1 µM) | 95.3% | 134% | 60.9% | 127% | 69.2% | 238% | 114% | 89% | 132% | 108% | 537% | 130% | 249% | 147% | 135% | 153% | 79.8% | 91.3% | 175%
C[C@]1(c2nc3c(C(N)=O)cccc3[nH]2)CCCN1 [Veliparib] + O=C(Nc1cccc(Cl)c1)Nc1ncc(CCNc2ncnc3ccsc23)s1 [SNS314] (first compound 1.4 µM, partner dose 0.0008 µM) | 73.1% | 100% | 131% | 83.6% | 61.6% | 327% | 128% | 92% | 154% | 85% | 92.9% | 75.3% | 73.8% | 213% | 89.9% | 88.7% | 93.4% | 171% | 216%
Clc1ccc(Nc2nnc(Cc3ccncc3)c3ccccc23)cc1 [vatalanib] + O=C(CCCCCCC(=O)Nc1ccccc1)NO [vorinostat] (first compound 2 µM, partner dose 0.08 µM) | 88.2% | 91.4% | 76.4% | 38.8% | 140% | 93.3% | 93.1% | 129% | 166% | 219% | 134% | 69.3% | 52.7% | 112% | 95.3% | 43.9% | 199% | 57.8% | 36.3%
COCC[n+]1c2c(n(Cc3cnccn3)c1C)C(=O)c1ccccc1C2=O + Cc1ccc(NC(=O)c2cccc(N(C)C)c2)cc1NC(=O)c1ccc(O)cc1 [ZM336372] (first compound 0.0004 µM, partner dose 2 µM) | 135% | 83.2% | 204% | 101% | 26.4% | 599% | 68.2% | 108% | 92.8% | 186% | 125% | 110% | 46.8% | 74% | 30.3% | 123% | 111% | 119% | 67.1%

Rewritten tab-delimited: part of the list above.
SMILES	cleaved PARP positive nuclei fraction [1]	cleaved PARP positive nuclei fraction [2]	cleaved PARP positive nuclei fraction [3]	cleaved PARP positive nuclei fraction [4]	cleaved PARP positive nuclei fraction [5]	cleaved PARP positive nuclei fraction [6]	cleaved PARP positive nuclei fraction [7]	cleaved PARP positive nuclei fraction [8]	cleaved PARP positive nuclei fraction [9]	cleaved PARP positive nuclei fraction [10]	cleaved PARP positive nuclei fraction [11]	cleaved PARP positive nuclei fraction [12]	cleaved PARP positive nuclei fraction [13]	cleaved PARP positive nuclei fraction [14]	cleaved PARP positive nuclei fraction [15]	cleaved PARP positive nuclei fraction [16]	cleaved PARP positive nuclei fraction [17]	cleaved PARP positive nuclei fraction [18]	cleaved PARP positive nuclei fraction [19]
C=CCn1c(=O)c2cnc(Nc3ccc(N4CCN(C)CC4)cc3)nc2n1-c1cccc(C(C)(C)O)n1 + Cc1ccc(NC(=O)c2cccc(N(C)C)c2)cc1NC(=O)c1ccc(O)cc1 [ZM336372] (first compound 0.02 µM, partner dose 2 µM)	268%	101%	20.4%	314%	89.2%	171%	120%	148%	99.5%	73.2%	87.4%	39.6%	152%	80.5%	217%	47.7%	53.2%	41%	161%
OCc1c[nH]c2ccccc12 [Indole-3-carbinol] + Cc1cc(N2CCOCC2)cc2[nH]c(-c3c(NC[C@@H](O)c4cccc(Cl)c4)cc[nH]c3=O)nc12 [BMS536924] (first compound 0.8 µM, partner dose 0.2 µM)	266%	66.5%	74.6%	110%	79.7%	281%	147%	86.1%	68.2%	73.5%	87%	105%	85.4%	127%	145%	66.1%	40%	141%	71.2%
